These are yes or no findings as the source states them, for the method shown. Binding seen in cells or lysates may run through a third protein. Here binding means that the protein was enriched with, or labelled near, the bait; the list need not be complete.
Biological target: Ruc with a C-terminal hexahistidine-FLAG tandem affinity purification tag (RucTAP) (M. tuberculosis) (UniProt O05574)
Assay: affinity purification with mass spectrometry

Protein sequences, listed by entry. Tags and fused reporters are not part of them. Lines headed by an entry give the natural chain unless they say otherwise; changes in a name come on top.
UniProt O05574: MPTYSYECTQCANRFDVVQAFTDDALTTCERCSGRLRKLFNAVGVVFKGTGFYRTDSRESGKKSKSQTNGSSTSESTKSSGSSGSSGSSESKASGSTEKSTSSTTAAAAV
UniProt P9WMJ9: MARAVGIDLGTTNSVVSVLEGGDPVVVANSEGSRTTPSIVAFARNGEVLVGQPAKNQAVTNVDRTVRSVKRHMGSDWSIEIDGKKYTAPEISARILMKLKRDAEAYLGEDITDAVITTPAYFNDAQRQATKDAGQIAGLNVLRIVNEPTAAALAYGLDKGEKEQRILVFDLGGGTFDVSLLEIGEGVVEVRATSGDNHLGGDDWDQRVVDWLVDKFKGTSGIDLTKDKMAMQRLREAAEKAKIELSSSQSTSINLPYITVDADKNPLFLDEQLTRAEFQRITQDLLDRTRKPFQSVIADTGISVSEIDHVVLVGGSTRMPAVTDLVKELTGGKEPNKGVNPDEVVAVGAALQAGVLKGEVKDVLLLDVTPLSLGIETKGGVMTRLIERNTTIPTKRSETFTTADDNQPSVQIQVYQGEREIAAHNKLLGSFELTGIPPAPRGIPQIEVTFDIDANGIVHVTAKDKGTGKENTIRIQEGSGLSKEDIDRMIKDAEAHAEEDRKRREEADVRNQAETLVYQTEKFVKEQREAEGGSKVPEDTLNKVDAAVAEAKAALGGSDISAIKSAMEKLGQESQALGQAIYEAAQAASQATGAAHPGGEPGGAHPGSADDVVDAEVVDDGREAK

Substance: M. tuberculosis DnaK (from UniProt P9WMJ9 1-625)
- binding: binds

Reference: article PMC7448276
